Test results reported in article PMC8437979.
These are yes or no findings as the source states them, for the method shown. In cells and extracts the contact can be indirect. These calls come from enrichment with a bait or labelling near it, and not all partners need be listed.

Chains of the proteins cited; added tags and fusions are not shown.
UniProt Q99942: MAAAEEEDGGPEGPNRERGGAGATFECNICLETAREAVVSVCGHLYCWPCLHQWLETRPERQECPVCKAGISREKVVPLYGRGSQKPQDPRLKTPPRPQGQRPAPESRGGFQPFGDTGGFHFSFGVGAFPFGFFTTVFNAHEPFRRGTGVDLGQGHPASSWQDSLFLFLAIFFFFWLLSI
UniProt Q09028: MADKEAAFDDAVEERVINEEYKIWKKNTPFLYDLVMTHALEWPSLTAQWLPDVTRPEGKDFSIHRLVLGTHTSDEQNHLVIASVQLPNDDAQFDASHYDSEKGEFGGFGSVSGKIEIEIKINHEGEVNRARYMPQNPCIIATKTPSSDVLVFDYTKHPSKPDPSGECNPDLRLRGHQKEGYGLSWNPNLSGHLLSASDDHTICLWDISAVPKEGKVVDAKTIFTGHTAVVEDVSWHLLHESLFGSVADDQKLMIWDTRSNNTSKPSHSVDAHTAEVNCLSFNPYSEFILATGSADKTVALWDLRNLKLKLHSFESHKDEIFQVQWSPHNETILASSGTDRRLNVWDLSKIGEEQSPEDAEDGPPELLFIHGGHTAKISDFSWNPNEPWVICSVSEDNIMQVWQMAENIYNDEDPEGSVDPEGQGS

Molecular target: Doxycycline-inducible Flag-tagged RNF5 (WT) in MOLM-13 cells (UniProt Q99942)
Assay: affinity purification with mass spectrometry; lysates of MOLM-13 cells expressing doxycycline-inducible Flag-tagged RNF5 versus empty vector (doxycycline 1 µg/mL 48 h; MG132 10 µM 4 h before harvest); TBS-lysis buffer; anti-Flag-M2-agarose overnight at 4 °C; elution with 3×Flag peptide; LC-MS/MS

## Endogenous RBBP4 (retinoblastoma binding protein 4) of MOLM-13 cells (from UniProt Q09028 1-425)
  binding: binds

## VCP (from UniProt P55072 1-806)
  binding: binds

B1: S100A8 (protein, UniProt P05109 1-93)
chain: MLTELEKALNSIIDVYHKYSLIKGNFHAVYRDDLKKLLETECPQYIRKKGADVWFKELDINTDGAVNFQEFLILVIKMGVAAHKKSHEESHKE
  binding: binds
